These are yes or no findings as the source states them, for the method shown. Binding seen in cells or lysates may run through a third protein.
Target: T. brucei PNUTS with PTP tag, bloodstream form (T. brucei)
Assay: co-IP; bloodstream form T. brucei whole cell extracts with PTP- and HA-tagged proteins; IgG Sepharose (protein A affinity), washed in PA-150 buffer, western blot with anti-HA, anti-protein A, anti-La

- binding: no binding
B1: T. brucei La protein (protein, UniProt Q9N9G6 1-335)
chain: MPLSSENKQKLQKQVEFYFSDVNVQRDIFLKGKMAENAEGFVSLETLLTFKRVNSVTTDVKEVVEAIRPSEKLVLSEDGLMVRRRDPLPESIQTDHQTVYVKPVPPTATLEQLTEFFSKHGTVQAVWRRYFAGKKDAPPESRTKPSVFVVFNSSEEAEAFQKAPPMYDDVQLTAEMKTTYLERKAEEIAAKKSSKTKNGGATDRAEKKTPPMPLGSSYRVSGCGEMESFATVKNLWPVEEQKGIRYVFMPDKESALLIFQDTQTGEKMVADLKSRGTTLNGKQPDIKKLEGDDEQKLLENVEKEIVDRAMQSANNRSGRGGRGGRGGRGHKRSRE

— publication PMC7055916
